Laboratory results as given in PubChem BioAssay AID2685 (National Center for Advancing Translational Sciences (NCATS), 2010).
The list shows a part of the results. These are further read-outs of the screen, such as a control signal, another cell line or another target. No call is given for them. Most of these compounds were active or inconclusive in the main read-out, so they are no random draw. Words in brackets tell the shape of the fitted curve; partial curves, single points and poor fits give uncertain potencies.

Assay: qHTS Assay for Lipid Storage Modulators in Drosophila S3 Cells;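 for cell number change: cells counted by Cell Tracker Red CMTPX staining in the red channel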
Conditions: BODIPY lipid droplet fluorescence, 18-24 h; for cell number change: measured here: cell count max response, cells fed with added oleic acid
How it was run: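 Laser-scanning cytometry quantifies lipid droplet accumulation (500–530 nm total intensity; droplet/cell object ratio) in oleic acid-fed (400 uM added) Drosophila S3 cells treated with a concentration series. 20 uM Triacsin C defined 100% inhibition.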

[1] = measured here: cell number channel AC50, cells fed with added oleic acid
[2] = measured here: lipid fluorescence (Fed channel) AC50, cells fed with added oleic acid

| Compound | cell number change [%] | AC50 [1] | AC50 [2] |
| --- | --- | --- | --- |
| CN1CCc2c(sc(NC(=O)c3ccc(S(=O)(=O)N4CCCCCC4)cc3)c2C(N)=O)C1 | 144 | 2.91 µM [falling, single point] | 8.2 µM [falling, partial curve] |
| Cc1ccc2[nH]c(C(=O)N3CCOCC3)cc2c1 | 5.82 |  | 0.146 µM [rising, full curve] |
| Nc1nc(SCn2nnc3ccccc3c2=O)n[nH]1 | 107 | 13 µM [rising, partial curve] | 23.1 µM [rising, partial curve] |
| COc1ccc(-c2[nH]ncc2-c2cscn2)c(O)c1 | 40.9 |  |  |
| O=C(Cn1cnc2ccccc21)N1CCN(S(=O)(=O)c2ccccc2)CC1 | 90.7 | 29.1 µM [rising, single point] | 1.84 µM [rising, single point] |
| CCN(CC(=O)Nc1ccc(NC(C)=O)cc1)C(=O)/C=C/c1cn(-c2ccccc2)nc1-c1ccc(F)cc1 | -26.1 |  |  |
| O=c1c2ccccc2ccc2ccccc12 | -24.7 | 0.0366 µM [falling, single point] | 29.1 µM [falling, single point] |
| COc1ccc2nc(SCC(=O)NC3CCCc4ccccc43)[nH]c2c1 (stereo not given) |  |  | 2.59 µM [falling, partial curve, poor fit] |
| Cc1noc(C)c1COc1ccc(C(=O)OCC(=O)Nc2ccc3c(c2)OCO3)cc1 | -25.4 |  |  |
| C=CCn1c(N)c(C(=O)OC(C)CC)c2nc3ccccc3nc21 (stereo not given) | 25.4 | 4.11 µM [rising, full curve, poor fit] | 6.51 µM [rising, single point] |
| Cc1onc(-c2ccccc2)c1C(=O)OCCOc1ccccc1F | -17.1 |  |  |
| CCSc1nc2c(sc3nc(C)cc(C)c32)c(=O)[nH]1 | -55 | 29.1 µM [falling, single point] |  |
| COc1ccc(-c2nc(SC)n(C)c(=O)c2C#N)cc1OC | -15.3 |  | 1.46 µM [rising, full curve, poor fit] |
| COc1ccc(CNC(=O)c2sc3nc4c(c(C(F)(F)F)c3c2N)CCC4)cc1 | 114 | 29.1 µM [rising, single point] | 29.1 µM [rising, partial curve] |
| CC(C)(C)OC(=O)NCCCCCNC(=O)c1[nH]cnc1C(=O)Nc1cccc(Cl)c1 | -32.5 | 29.1 µM [falling, single point] |  |
| Cc1ccc(C(=O)COC(=O)CCC(=O)NC2CCCCC2)cc1[N+](=O)[O-] | -18.6 | 0.00461 µM [falling, full curve, poor fit] | 0.00651 µM [falling, full curve, poor fit] |
| CCOc1cc(C(=O)OC(C)C(=O)Nc2ncc(Cl)cc2Cl)ccc1OCC(=O)N1CCOCC1 (stereo not given) | 17.5 |  | 2.91 µM [rising, single point] |
| C/C(=N\Nc1nc(C)c(C)s1)c1ccc([N+](=O)[O-])cc1 |  |  | 0.731 µM [falling, single point] |
| O=Nc1onc(-c2ccc([N+](=O)[O-])cc2)c1NO | -34.6 | 2.06 µM [falling, full curve, poor fit] | 29.1 µM [falling, single point] |
| C=CCn1c(O)c(N=Nc2nc3ccccc3c(=O)n2-c2ccccc2)c2ccccc21 | 34.9 | 0.411 µM [rising, full curve, poor fit] | 20.6 µM [rising, partial curve] |

| Compound | cell number change [%] | AC50 [1] | AC50 [2] |
| --- | --- | --- | --- |
| Cc1ccnc(NC(=O)Nc2cccc(F)c2)c1 | -4.28 |  |  |
| CCN1CCN(Cc2cc(=O)oc3ccc(Cl)cc23)CC1 | -3.32 |  | 0.206 µM [falling, full curve, poor fit] |
| FC(F)(F)c1nc2ccccc2nc1N/N=C/c1ccc(Cl)cc1 | -84.2 | 14.6 µM [falling, partial curve] | 14.6 µM [falling, partial curve] |
| Clc1ccc(OCCN2CCOCC2)cc1 | -2.76 |  | 6.51 µM [falling, single point] |
| O=C(NCCN1C(=O)S/C(=C\c2cccnc2)C1=O)C1CC(=O)N(Cc2ccco2)C1 (stereo not given) |  | 0.58 µM [rising, single point] |  |
| Cc1ccn2c(C=O)c(-c3ccc(F)cc3)c(C=O)c2c1 | 21.4 |  | 0.00517 µM [rising, full curve, poor fit] |
| CCS(=O)(=O)N1CCN(CC2CC3C=CC2C3)CC1 (stereo not given) | 33.8 |  | 0.82 µM [falling, full curve] |
| Cc1cccc(N2C(=O)C(O)=C(C(=O)c3cccs3)C2c2ccc(F)cc2)n1 (stereo not given) | -33.7 |  | 20.6 µM [falling, single point] |
| c1ccc(-c2nc(NCc3cccnc3)c3oc4ccccc4c3n2)cc1 | 6.96 |  | 0.58 µM [rising, full curve] |
| O=C1c2cccc3c(O)ccc(c23)C(=O)N1c1ccc(Cl)cc1 | -91.8 | 4.11 µM [falling, full curve] | 6.51 µM [falling, full curve] |
| N#CC1=C(N)C(C#N)(C#N)[C@H](c2c(F)cccc2F)[C@H]2CC3(CC=C12)OCCO3 |  | 1.3 µM [rising, partial curve] |  |
| CC(=O)Nc1ccc(N2CCC(C)CC2)c([N+](=O)[O-])c1 | -19.2 |  | 0.103 µM [falling, full curve] |
| O=C(COc1ccccc1Cl)Nc1cc(NC(=O)COc2ccccc2Cl)cc(C(=O)O)c1 | -11.3 |  | 29.1 µM [rising, single point] |
| O=C(Nc1ccccc1)N(CCN1CCOCC1)Cc1ccccc1F | 154 | 14.6 µM [rising, partial curve] |  |
| Cc1onc(-c2ccccc2)c1C(=O)Nc1ccc2c(c1)OCO2 | -12.8 |  | 0.92 µM [rising, single point] |
| COC(=O)[C@H](CC(C)C)NC(=O)Nc1ccccc1F | -15.1 |  | 4.11 µM [falling, single point] |
| O=C(CCCn1ncn2c(cc3occc32)c1=O)NCc1ccccc1F | -29.5 |  | 14.6 µM [falling, partial curve] |
| CN1C(=O)c2ccc(C(=O)Nc3ccc4c(c3)OCO4)cc2C1=O | -7.28 |  | 29.1 µM [falling, single point] |
| Cc1cc(=O)oc2cc(OC(C)C)ccc12 | 8.25 |  | 0.231 µM [falling, full curve, poor fit] |
| O=C(C1CCC(CNc2c(N3CCCCC3)c(=O)c2=O)CC1)N1CCCC1 (stereo not given) | -21.3 |  | 3.66 µM [falling, full curve] |

In the list so far, three contain a furan ring, fused or not.

| Compound | cell number change [%] | AC50 [1] | AC50 [2] |
| --- | --- | --- | --- |
| O=C(NCCN1C(=O)S/C(=C\c2cccnc2)C1=O)C1CC(=O)N(Cc2ccco2)C1 (stereo not given) |  | 0.58 µM [rising, single point] |  |
| c1ccc(-c2nc(NCc3cccnc3)c3oc4ccccc4c3n2)cc1 | 6.96 |  | 0.58 µM [rising, full curve] |
| O=C(CCCn1ncn2c(cc3occc32)c1=O)NCc1ccccc1F | -29.5 |  | 14.6 µM [falling, partial curve] |

Following part:

| Compound | cell number change [%] | AC50 [1] | AC50 [2] |
| --- | --- | --- | --- |
| CC(Oc1ccc(F)cc1)C(=O)Nc1ccccc1C(=O)NC1CC1 (stereo not given) | 67.1 | 8.2 µM [rising, partial curve] |  |
| Cc1ccc(C(=O)N/C(=C/c2ccco2)C(=O)NCCCn2ccnc2)cc1 | 26.6 |  | 29.1 µM [rising, single point] |
| CCC[C@@H](CN[C@@H](CNC)C(C)C)NCCCCc1ccccc1 | 0.599 |  | 6.51 µM [rising, single point] |
| CNC(=S)Nc1cccc2[nH]ncc12 | 62.1 |  |  |
| CC(C)C(NC(=O)CSCc1ccc([N+](=O)[O-])cc1)C(C)C | -11.9 |  | 29.1 µM [rising, single point] |
| Nc1c(C(=O)C2CC2)sc2nc(-c3cccs3)cc(C(F)(F)F)c12 |  | 1.3 µM [rising, partial curve] | 7.31 µM [falling, partial curve] |
| CCc1noc(C)c1C(=O)NNC(=O)COc1ccc(Br)cc1 |  |  | 0.517 µM [falling, single point] |
| Cc1cc2cc(CNC(=S)NC3CCCCC3)ccc2n1C | 8.5 |  | 0.82 µM [rising, full curve, poor fit] |
| COc1ccccc1NC(=O)c1ccccc1S(=O)(=O)c1ccc([N+](=O)[O-])cc1 | -15.8 |  |  |
| Cc1ccc(-c2nc(SCC(=O)NCCN3C(=O)CSC3=O)[nH]c2-c2ccc(C)cc2)cc1 | -76.9 | 25.9 µM [falling, partial curve] | 23.1 µM [falling, partial curve, poor fit] |
| CC(=O)Nc1cc(C(=O)NCc2ccco2)ccc1Sc1ccc(C)cc1 | 33 | 29.1 µM [rising, single point] | 29.1 µM [rising, single point] |
| CCCc1nnc(NC(=O)Cn2c(=O)oc3cc(Br)ccc32)s1 | -5.48 |  |  |
| CC(OC(=O)CSc1ccc([N+](=O)[O-])cc1)C(=O)NCc1ccccc1 (stereo not given) | -11.1 |  |  |
| CCC(=O)Nc1c(C(=O)Nc2ccc3c(c2)OCCO3)oc2ccccc12 | -32.2 | 32.6 µM [falling, single point] | 29.1 µM [falling, single point] |
| Cc1ccccc1C1CC(c2cccs2)Nc2nnnn21 (stereo not given) | -13.5 | 0.116 µM [falling, full curve, poor fit] | 7.31 µM [falling, partial curve, poor fit] |
| O=C(NCc1cccnc1)/C(=C/c1ccc(-c2ccc(Cl)cc2)o1)S(=O)(=O)c1ccccc1 | -24.4 |  | 23.1 µM [falling, single point] |
| COc1cccc(CNCc2ccccn2)c1OC | -105 | 32.6 µM [falling, partial curve] |  |
| Cc1nc2ccccc2n1C(=O)N(C)C | -36 | 32.6 µM [falling, single point] |  |
| Cc1ccc(OCCNC(=O)c2ccc3c(c2)OCO3)cc1 | 40.1 | 1.03 µM [rising, full curve, poor fit] | 20.6 µM [rising, partial curve, poor fit] |
